Laboratory results reported in patent US20100330697A1, “COMPLEXES OF TRPC DOMAINS AND SESTD1 DOMAINS AND METHODS AND USES INVOLVING THE SAME” (SANOFI-AVENTIS, priority 2007, published 2010).
These are yes or no findings as the source states them, for the method shown. For some of these results: Binding seen in cells or lysates may run through a third protein. Some results given as binding are weak or reduced against the parent protein; the word gives no strength. Tags and fused reporters may be left off the sequences shown. Each block holds one binder with its values, some of them ahead of it.

Sequences of proteins named here, by UniProt entry; tags and fusion partners are left off. A change or cut given only in a name is not applied to a line headed by its entry. A line that says so, or that is headed by a name, gives the form on record, which may keep a tag or linker. Residues count along the entry.
UniProt Q9QUQ5: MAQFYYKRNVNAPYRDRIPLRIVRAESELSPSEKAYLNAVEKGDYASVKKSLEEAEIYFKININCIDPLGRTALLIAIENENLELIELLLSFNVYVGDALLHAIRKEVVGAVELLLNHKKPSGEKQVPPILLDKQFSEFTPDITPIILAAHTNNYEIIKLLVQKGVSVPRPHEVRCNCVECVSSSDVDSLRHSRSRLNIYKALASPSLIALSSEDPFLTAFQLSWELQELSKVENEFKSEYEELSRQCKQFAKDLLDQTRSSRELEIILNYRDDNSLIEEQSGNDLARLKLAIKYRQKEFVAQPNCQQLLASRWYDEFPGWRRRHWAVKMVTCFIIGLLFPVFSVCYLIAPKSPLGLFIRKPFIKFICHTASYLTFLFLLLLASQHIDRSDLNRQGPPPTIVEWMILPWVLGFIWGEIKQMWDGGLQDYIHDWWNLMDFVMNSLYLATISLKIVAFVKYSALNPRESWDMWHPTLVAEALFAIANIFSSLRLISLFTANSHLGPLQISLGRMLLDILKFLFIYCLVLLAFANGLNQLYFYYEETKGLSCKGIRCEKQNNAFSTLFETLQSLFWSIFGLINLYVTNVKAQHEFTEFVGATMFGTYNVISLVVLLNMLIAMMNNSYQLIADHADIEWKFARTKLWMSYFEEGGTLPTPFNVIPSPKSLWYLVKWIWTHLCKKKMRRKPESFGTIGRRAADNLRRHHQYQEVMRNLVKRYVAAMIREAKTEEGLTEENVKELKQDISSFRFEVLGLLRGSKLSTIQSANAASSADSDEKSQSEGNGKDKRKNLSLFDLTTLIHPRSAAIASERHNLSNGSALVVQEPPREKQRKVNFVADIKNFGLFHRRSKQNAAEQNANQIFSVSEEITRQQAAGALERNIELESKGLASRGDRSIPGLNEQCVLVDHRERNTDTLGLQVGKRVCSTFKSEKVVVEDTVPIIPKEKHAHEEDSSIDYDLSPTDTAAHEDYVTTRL
mTRPC4α C-terminus (aa 615-974) overexpressed in HEK293 cells: residues 615-974 of Q9QUQ5
mTRPC4β overexpressed in HEK293 cells (Q9QUQ5, form named): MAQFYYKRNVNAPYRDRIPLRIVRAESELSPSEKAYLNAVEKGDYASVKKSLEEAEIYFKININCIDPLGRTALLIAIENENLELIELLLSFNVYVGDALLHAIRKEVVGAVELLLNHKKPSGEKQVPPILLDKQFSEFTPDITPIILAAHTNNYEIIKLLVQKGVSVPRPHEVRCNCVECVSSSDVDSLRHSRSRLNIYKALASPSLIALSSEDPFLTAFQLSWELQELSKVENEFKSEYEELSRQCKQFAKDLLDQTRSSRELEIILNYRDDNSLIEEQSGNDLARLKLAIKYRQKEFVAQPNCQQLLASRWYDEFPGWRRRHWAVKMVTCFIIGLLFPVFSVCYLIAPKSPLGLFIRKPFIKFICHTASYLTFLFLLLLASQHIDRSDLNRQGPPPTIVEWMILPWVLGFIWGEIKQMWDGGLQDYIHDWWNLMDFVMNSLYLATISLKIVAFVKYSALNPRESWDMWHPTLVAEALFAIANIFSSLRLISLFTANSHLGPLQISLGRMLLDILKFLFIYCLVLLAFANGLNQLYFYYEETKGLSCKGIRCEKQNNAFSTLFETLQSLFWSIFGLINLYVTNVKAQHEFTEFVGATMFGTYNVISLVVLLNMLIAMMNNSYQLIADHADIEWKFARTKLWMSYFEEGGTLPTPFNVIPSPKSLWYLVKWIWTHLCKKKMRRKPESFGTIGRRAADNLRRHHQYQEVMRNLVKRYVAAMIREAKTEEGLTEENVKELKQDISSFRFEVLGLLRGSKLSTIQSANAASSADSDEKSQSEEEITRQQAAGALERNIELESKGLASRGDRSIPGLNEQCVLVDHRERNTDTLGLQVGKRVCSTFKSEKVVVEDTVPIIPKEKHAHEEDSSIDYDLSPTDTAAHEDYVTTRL
UniProt Q9QX29: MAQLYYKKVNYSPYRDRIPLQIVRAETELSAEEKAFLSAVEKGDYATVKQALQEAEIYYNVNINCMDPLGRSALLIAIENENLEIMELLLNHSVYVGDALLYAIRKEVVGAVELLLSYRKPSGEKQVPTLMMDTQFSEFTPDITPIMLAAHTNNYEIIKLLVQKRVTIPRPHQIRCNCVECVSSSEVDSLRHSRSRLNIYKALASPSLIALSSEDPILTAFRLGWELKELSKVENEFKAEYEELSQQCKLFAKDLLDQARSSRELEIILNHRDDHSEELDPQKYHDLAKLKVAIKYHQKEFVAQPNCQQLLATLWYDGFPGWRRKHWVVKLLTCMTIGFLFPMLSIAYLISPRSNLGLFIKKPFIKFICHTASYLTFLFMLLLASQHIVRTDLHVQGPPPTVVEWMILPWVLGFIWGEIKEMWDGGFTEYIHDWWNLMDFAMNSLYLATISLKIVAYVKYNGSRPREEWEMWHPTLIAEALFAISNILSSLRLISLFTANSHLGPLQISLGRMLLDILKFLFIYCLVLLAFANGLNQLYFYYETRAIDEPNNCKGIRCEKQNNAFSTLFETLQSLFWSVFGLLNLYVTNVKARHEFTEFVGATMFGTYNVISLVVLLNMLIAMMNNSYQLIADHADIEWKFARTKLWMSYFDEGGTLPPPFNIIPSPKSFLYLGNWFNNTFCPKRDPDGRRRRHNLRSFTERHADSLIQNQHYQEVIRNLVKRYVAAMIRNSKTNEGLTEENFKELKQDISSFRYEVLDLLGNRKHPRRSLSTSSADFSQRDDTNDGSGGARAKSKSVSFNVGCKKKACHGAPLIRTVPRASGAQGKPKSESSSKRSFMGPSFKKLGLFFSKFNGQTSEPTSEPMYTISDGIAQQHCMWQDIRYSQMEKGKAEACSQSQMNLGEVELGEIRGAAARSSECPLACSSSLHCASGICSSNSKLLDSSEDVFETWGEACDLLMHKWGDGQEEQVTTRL
UniProt P04386: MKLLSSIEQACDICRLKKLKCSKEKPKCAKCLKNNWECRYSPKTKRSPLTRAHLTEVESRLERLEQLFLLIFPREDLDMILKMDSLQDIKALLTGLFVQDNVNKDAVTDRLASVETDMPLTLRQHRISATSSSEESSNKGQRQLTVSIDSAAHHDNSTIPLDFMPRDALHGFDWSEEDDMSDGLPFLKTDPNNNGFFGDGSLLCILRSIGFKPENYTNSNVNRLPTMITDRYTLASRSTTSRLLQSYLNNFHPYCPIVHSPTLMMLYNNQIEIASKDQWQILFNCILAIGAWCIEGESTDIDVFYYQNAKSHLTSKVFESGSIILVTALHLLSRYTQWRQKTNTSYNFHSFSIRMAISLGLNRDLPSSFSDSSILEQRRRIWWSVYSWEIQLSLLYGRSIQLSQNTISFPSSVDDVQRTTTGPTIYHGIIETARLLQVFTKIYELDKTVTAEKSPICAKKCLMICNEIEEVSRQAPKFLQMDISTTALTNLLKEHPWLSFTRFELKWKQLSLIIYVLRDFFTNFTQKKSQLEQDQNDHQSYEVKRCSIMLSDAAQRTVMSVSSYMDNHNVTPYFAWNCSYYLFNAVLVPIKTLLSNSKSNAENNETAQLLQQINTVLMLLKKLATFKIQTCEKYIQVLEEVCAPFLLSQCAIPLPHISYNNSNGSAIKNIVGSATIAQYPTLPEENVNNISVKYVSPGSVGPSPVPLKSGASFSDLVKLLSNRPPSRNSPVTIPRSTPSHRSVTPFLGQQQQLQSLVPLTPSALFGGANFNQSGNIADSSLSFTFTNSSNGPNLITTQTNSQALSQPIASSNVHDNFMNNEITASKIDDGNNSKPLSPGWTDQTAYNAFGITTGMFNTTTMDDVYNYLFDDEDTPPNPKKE

Experiments:
[1] = target: mTRPC4α C-terminus (aa 615-974) overexpressed in HEK293 cells (murine) (UniProt Q9QUQ5); assay: GST pulldown from HEK293 lysate, anti-TRPC4 Western blot
[2] = target: mTRPC4α overexpressed in HEK293 cells (murine) (UniProt Q9QUQ5); assay: as above
[3] = target: mTRPC4β overexpressed in HEK293 cells (murine) (UniProt Q9QUQ5); assay: as above
[4] = target: mTRPC5 overexpressed in HEK 293 cells (murine) (UniProt Q9QX29); assay: GST pulldown from HEK293 lysate, anti-TRPC5 Western blot
[5] = target: mTRPC4α overexpressed in HEK293 cells (murine) (UniProt Q9QUQ5); assay: GST pulldown from HEK293 lysate, Western blot
[6] = target: mTRPC5 overexpressed in HEK 293 cells (murine) (UniProt Q9QX29); assay: GST pulldown from HEK293 lysate, Western blot
[7] = target: mTRPC4β overexpressed in HEK293 cells (murine) (UniProt Q9QUQ5); assay: GST pulldown from HEK293 lysate, Western blot
[8] = target: T1, mTRPC4α (615-974)/leucine zipper/pGBKT7 (murine, UniProt P04386 1-147; Q9QUQ5 615-974); assay: directed yeast two-hybrid, growth on selective media
T1 construct: Yeast two-hybrid bait in yeast AH109; the order here follows the printed construct name behind the GAL4 DNA-BD; The zipper is said to direct tetramerization; also called mTRPC4a C-terminus

[9] = target: C-terminus of mTRPC5, yeast two-hybrid bait (murine) (UniProt P04386+Q9QX29); assay: as above

binding [1]: binds
B1: GST-SESTD1 (protein, human, UniProt Q86VW0 1-696, looked up, not shown: a dimerising Fc or GST)
chain: MEASVILPILKKKLAFLSGGKDRRSGLILTIPLCLEQTNMDELSVTLDYLLSIPSEKCKARGFTVIVDGRKSQWNVVKTVVVMLQNVVPAEVSLVCVVKPDEFWDKKVTHFCFWKEKDRLGFEVILVSANKLTRYIEPCQLTEDFGGSLTYDHMDWLNKRLVFEKFTKESTSLLDELALINNGSDKGNQQEKERSVDLNFLPSVDPETVLQTGHELLSELQQRRFNGSDGGVSWSPMDDELLAQPQVMKLLDSLREQYTRYQEVCRQRSKRTQLEEIQQKVMQVVNWLEGPGSEQLRAQWGIGDSIRASQALQQKHEEIESQHSEWFAVYVELNQQIAALLNAGDEEDLVELKSLQQQLSDVCYRQASQLEFRQNLLQAALEFHGVAQDLSQQLDGLLGMLCVDVAPADGASIQQTLKLLEEKLKSVDVGLQGLREKGQGLLDQISNQASWAYGKDVTIENKENVDHIQGVMEDMQLRKQRCEDMVDVRRLKMLQMVQLFKCEEDAAQAVEWLSELLDALLKTHIRLGDDAQETKVLLEKHRKFVDVAQSTYDYGRQLLQATVVLCQSLRCTSRSSGDTLPRLNRVWKQFTIASEERVHRLEMAIAFHSNAEKILQDCPEEPEAINDEEQFDEIEAVGKSLLDRLTVPVVYPDGTEQYFGSPSDMASTAENIRDRMKLVNLKRQQLRHPEMVTTES

binding [2]: binds
binding [3]: binds
binding [4]: binds
binding [5]: binds
binding [6]: binds
binding [7]: binds
B2: GST-Spec 1 (aa 193-406) (protein, human, UniProt Q86VW0 193-406, looked up, not shown: a dimerising Fc or GST)
chain: ERSVDLNFLPSVDPETVLQTGHELLSELQQRRFNGSDGGVSWSPMDDELLAQPQVMKLLDSLREQYTRYQEVCRQRSKRTQLEEIQQKVMQVVNWLEGPGSEQLRAQWGIGDSIRASQALQQKHEEIESQHSEWFAVYVELNQQIAALLNAGDEEDLVELKSLQQQLSDVCYRQASQLEFRQNLLQAALEFHGVAQDLSQQLDGLLGMLCVDVA

binding [8]: binds
binding [9]: binds
B3: SESTD1-Spec 1 (aa 193-406), GAL4 activation domain fusion (protein, human, UniProt Q86VW0 193-406, looked up, not shown: large carriers)
chain: B2 chain

binding [9]: binds
B4: SESTD1-Spec 2 (aa 407-696), GAL4 activation domain fusion (protein, human, UniProt Q86VW0 407-696, looked up, not shown: large carriers)
chain: PADGASIQQTLKLLEEKLKSVDVGLQGLREKGQGLLDQISNQASWAYGKDVTIENKENVDHIQGVMEDMQLRKQRCEDMVDVRRLKMLQMVQLFKCEEDAAQAVEWLSELLDALLKTHIRLGDDAQETKVLLEKHRKFVDVAQSTYDYGRQLLQATVVLCQSLRCTSRSSGDTLPRLNRVWKQFTIASEERVHRLEMAIAFHSNAEKILQDCPEEPEAINDEEQFDEIEAVGKSLLDRLTVPVVYPDGTEQYFGSPSDMASTAENIRDRMKLVNLKRQQLRHPEMVTTES
